Results: PubChem BioAssay AID328 (DTP/NCI, 2004)
The list shows only some results of the screen, not a fair sample: it gathers tests that were run many times, whatever their T/C, doses with no T/C, and many T/C values between a quarter and a half above the control. Further doses and runs are listed elsewhere. T/C gives the treated animals as a percentage of the vehicle group. Some entries give survivors of the animals treated and no T/C: the source holds a T/C of zero for them, seemingly a mark for toxic or unscored doses. Some doses without a T/C left all or most animals alive at the check, yet need not have been tolerated: the source hardly ever lists a survival T/C far under the control, and the zero likely stands for such cases as well. Survivors were counted at the toxicity check, usually on the fifth day, unless a day is given; later deaths do not show. Schedules are NCI's codes, read here as Q, the interval in days (D) or hours (H), X, the number of doses. Some entries hold several experiments; the values are given in rising order. For survival time, this PubChem deposit counts one and a half times the control or more as active, and values a quarter to a half above the control carry no call in these data; other NCI protocols may use other cut-offs. Some T/C values carry the count of animals alive at the toxicity check (mostly the fifth day); where none is given, no animal had died by that day. Starred links: 1 amine or outer side, 2 acyl side, 3 side chain; linkers in the order of their positions; H or OH if unused. Positions of bridges follow the written chain, without caps; N, C: chain ends. Non-standard residues stand in square brackets, D forms with d. Residues, ends and D or L forms follow the SMILES beside them. Chains are numbered I, II in the order given. ξ: configuration not given here. *: point of attachment. Actinocin(1to9) = Cc1c2oc3c(C)ccc(C(=O)[*:2])c3nc-2c(C(=O)[*:1])c(N)c1=O; NMeV = CN[CH](C(=O)O)C(C)C; Nphe = O=C(O)CNCc1ccccc1; ξL = CC(C)CC(N)C(=O)O; Ms = CS(=O)(=O)*; Sar = CNCC(=O)O

System: BDF1 mice, P388 leukemia ip, median survival T/C
Test: NCI In Vivo Anticancer Drug Screen. Data for tumor model P388 Leukemia (intraperitoneal) in B6D2F1 (BDF1) mice
Conditions: T/C endpoint: median survival time, higher T/C = longer survival
Summary of the method: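 Read-out is survival of treated animals expressed relative to the vehicle group, as a T/C ratio.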

[1] = dose: 50.0 mg/kg/injection, schedule: Q01DX009 (ip), vehicle: Klucel (hydroxypropylcellulose) (HPC)
[2] = dose: 50.0 mg/kg/injection, schedule: Q01DX009 (ip), vehicle: saline with Tween-80
[3] = dose: 100.0 mg/kg/injection, schedule: Q01DX009 (ip), vehicle: Klucel (hydroxypropylcellulose) (HPC)
[4] = dose: 100.0 mg/kg/injection, schedule: Q01DX009 (ip), vehicle: saline with Tween-80
[5] = dose: 200.0 mg/kg/injection, schedule: Q01DX009 (ip), vehicle: saline with Tween-80
[6] = dose: 400.0 mg/kg/injection, schedule: Q01DX009 (ip), vehicle: saline with Tween-80
[7] = dose: 400.0 mg/kg/injection, schedule: Q01DX009 (ip), vehicle: other

CSc1ncnc2c1ncn2C1OC(CO)C(O)OC1O (stereo not given)
T/C (dose: 12.5 mg/kg/injection, schedule: Q01DX009 (ip), vehicle: Klucel (hydroxypropylcellulose) (HPC)): 125 % of control
T/C (dose: 25.0 mg/kg/injection, schedule: Q01DX009 (ip), vehicle: Klucel (hydroxypropylcellulose) (HPC)): 130 % of control
T/C (dose: 25.0 mg/kg/injection, schedule: Q01DX009 (ip), vehicle: saline with Tween-80): 140 % of control
T/C [1]: 145 % of control [5 of 6 alive]
T/C [2]: 136 % of control
survivor count [3]: 1 of 6
survivor count [4]: 5 of 6

CS(=O)(=O)OCCCl
survivor count (dose: 150.0 mg/kg/injection, schedule: Q01DX010 (ip), vehicle: saline): 5 of 6 and 6 of 6

Oc1ccccc1OB(Oc1ccccc1O)N(CCCl)CCCl
T/C (dose: 12.0 mg/kg/injection, schedule: Q01DX009 (ip), vehicle: Klucel (hydroxypropylcellulose) (HPC)): 131 % of control
T/C (dose: 37.5 mg/kg/injection, schedule: Q04DX003 (ip), vehicle: saline): 145 % of control
survivor count (dose: 56.25 mg/kg/injection, schedule: Q01DX009 (ip), vehicle: Klucel (hydroxypropylcellulose) (HPC)): 6 of 6
survivor count (dose: 112.5 mg/kg/injection, schedule: Q01DX009 (ip), vehicle: Klucel (hydroxypropylcellulose) (HPC)): 6 of 6
survivor count (dose: 150.0 mg/kg/injection, schedule: Q04DX003 (ip), vehicle: saline): 5 of 6

CC1C(=O)CCC2(C)C1CCC1C3CCC(O)C3(C)CCC12 (stereo not given)
survivor count [4]: 6 of 6
survivor count [5]: 6 of 6
survivor count [6]: 6 of 6

C[n+]1ccc(/C=N/O)cc1
survivor count (dose: 25.0 mg/kg/injection, schedule: Q04DX003 (ip), vehicle: saline): 3 of 6
survivor count (dose: 50.0 mg/kg/injection, schedule: Q04DX003 (ip), vehicle: saline): 1 of 6
survivor count (dose: 400.0 mg/kg/injection, schedule: Q04DX003 (ip), vehicle: saline): 6 of 6

NCCCNCCCCNCCCN
T/C (dose: 25.0 mg/kg/injection, schedule: Q01DX001 (ip), vehicle: saline): 129 % of control
survivor count (dose: 100.0 mg/kg/injection, schedule: Q01DX001 (ip), vehicle: saline): 3 of 6
survivor count (dose: 200.0 mg/kg/injection, schedule: Q01DX001 (ip), vehicle: saline): 0 of 6

Cc1ccc(S(=O)(=O)OCCN(CCOS(=O)(=O)c2ccc(C)cc2)c2ccc(F)cc2)cc1
T/C (dose: 100.0 mg/kg/injection, schedule: Q04DX003 (ip), vehicle: other): 136 % of control
T/C (dose: 150.0 mg/kg/injection, schedule: Q01DX009 (ip), vehicle: other): 136 % of control
survivor count [7]: 4 of 6

CC1C(=O)OC2CC[N+]3([O-])CC=C(COC(=O)C(C)(O)C1(C)O)C23 (stereo not given)
T/C (dose: 200.0 mg/kg/injection, schedule: Q01DX010 (ip), vehicle: saline): 125 % of control

OCCN(CCO)c1cc(O)cc(O)c1
survivor count [2]: 6 of 6
survivor count [4]: 6 of 6
survivor count [5]: 6 of 6
survivor count [6]: 6 of 6

[Co].[N-]=C=S.[N-]=C=S.[N-]=C=S.[NH2-].[NH2-].[NH2-]
survivor count (dose: 600.0 mg/kg/injection, schedule: Q01DX001 (ip), vehicle: suspension in saline): 1 of 6

NNC(=O)[C@H]1CC[C@H]1C(=O)NN
T/C (dose: 50.0 mg/kg/injection, schedule: Q01DX009 (ip), vehicle: saline): 130 % of control
survivor count (dose: 133.0 mg/kg/injection, schedule: Q01DX009 (ip), vehicle: saline): 6 of 6
survivor count (dose: 200.0 mg/kg/injection, schedule: Q01DX009 (ip), vehicle: saline): 4 of 6 and 6 of 6
survivor count (dose: 300.0 mg/kg/injection, schedule: Q01DX009 (ip), vehicle: saline): 5 of 6

CC1C=CCC(C)(C)C1 (stereo not given)
survivor count [5]: 6 of 6
survivor count [6]: 1 of 6

CC(C)CC(NC(=O)CN(Cc1ccccc1)S(C)(=O)=O)C(=O)O (stereo not given) (Ms-[Nphe]-[ξL]-OH)
T/C (dose: 25.0 mg/kg/injection, schedule: Q01DX009 (ip), vehicle: other): 133 % of control [5 of 6 alive]
T/C (dose: 100.0 mg/kg/injection, schedule: Q01DX009 (ip), vehicle: other): 136 % of control
survivor count [7]: 6 of 6

CC1(C)O[C@@H]2C[C@H]3[C@@H]4CCC5=CC(=O)CC[C@]5(C)[C@@]4(F)[C@@H](O)C[C@]3(C)[C@]2(C(=O)CO)O1
survivor count [4]: 6 of 6
survivor count [5]: 6 of 6
survivor count [6]: 5 of 6

O=C(OC[P+](c1ccccc1)(c1ccccc1)c1ccccc1)c1ccccc1
T/C (dose: 6.25 mg/kg/injection, schedule: Q01DX009 (ip), vehicle: saline): 135 % of control
T/C (dose: 12.5 mg/kg/injection, schedule: Q01DX009 (ip), vehicle: saline): 130 and 145 % of control
T/C (dose: 25.0 mg/kg/injection, schedule: Q01DX009 (ip), vehicle: saline): 134 % of control

c1ccc(CN2C3Oc4ccccc4C2Oc2ccccc23)cc1
survivor count [4]: 6 of 6

CCOC(=O)c1cnc(SCc2ccccc2Cl)nc1N1CC1
T/C (dose: 21.25 mg/kg/injection, schedule: Q01DX009 (ip), vehicle: Klucel (hydroxypropylcellulose) (HPC)): 129 % of control
T/C (dose: 42.5 mg/kg/injection, schedule: Q01DX009 (ip), vehicle: Klucel (hydroxypropylcellulose) (HPC)): 128 and 145 % of control

CC(C)(C)OOC(=O)c1ccccc1O
T/C [4]: 136 % of control
survivor count [5]: 0 of 6

C=C(C)C(=O)O[C@H]1CC2=CC(CC(C)=C[C@H]3OC(=O)C(=C)C13)OC2=O (stereo not given in full)
T/C (dose: 25.0 mg/kg/injection, schedule: Q01DX001 (ip), vehicle: saline with Tween-80): 131 % of control
T/C (dose: 100.0 mg/kg/injection, schedule: Q01DX001 (ip), vehicle: saline with Tween-80): 125 and 134 % of control

CCCCCCCCCC(O)CCCCCC (stereo not given)
survivor count (dose: 50.0 mg/kg/injection, schedule: Q01DX009 (ip), vehicle: other): 6 of 6
T/C (dose: 200.0 mg/kg/injection, schedule: Q01DX009 (ip), vehicle: other): 125 % of control
survivor count (dose: 400.0 mg/kg/injection, schedule: Q04DX003 (ip), vehicle: other): 5 of 6

CCC(C)C1NC(=O)C(NC(=O)c2c3nc4c(C(=O)NC5C(=O)NC(C(C)C)C(=O)N6CCCC6C(=O)N(C)CC(=O)N(C)C(C(C)C)C(=O)OC5C)ccc(C)c4oc-3c(C)c(=O)c2N)C(C)OC(=O)C(C(C)C)N(C)C(=O)CN(C)C(=O)C2CCCN2C1=O (stereo not given) (I: TIP[Sar][NMeV] / II: TVP[Sar][NMeV]; ester I:1-I:C, II:1-II:C; linker I:N-II:N via Actinocin(1to9); configuration not given here)
survivor count (dose: 0.2 mg/kg/injection, schedule: Q01DX010 (ip), vehicle: saline): 6 of 6
survivor count (dose: 0.4 mg/kg/injection, schedule: Q01DX010 (ip), vehicle: saline): 3 of 6
survivor count (dose: 1.6 mg/kg/injection, schedule: Q01DX001 (ip), vehicle: water): 1 of 10
T/C (dose: 6.3 micrograms/kg/injection, schedule: Q04DX003 (ip), vehicle: saline): 131 % of control
T/C (dose: 12.5 micrograms/kg/injection, schedule: Q01DX001 (ip), vehicle: saline): 131 % of control
T/C (dose: 12.5 micrograms/kg/injection, schedule: Q04DX003 (ip), vehicle: saline): 145 % of control
T/C (dose: 25.0 micrograms/kg/injection, schedule: Q01DX001 (ip), vehicle: saline): 145 % of control
survivor count (dose: 400.0 micrograms/kg/injection, schedule: Q01DX010 (ip), vehicle: saline): 6 of 6

COc1cccc(N2C(=O)CSC2=S)c1
survivor count [6]: 3 of 6

CCN1c2ccccc2C(Cl)(c2ccc(N(C)C)cc2)c2ccccc21
T/C (dose: 15.0 mg/kg/injection, schedule: Q01DX009 (ip), vehicle: saline): 131 % of control

C/C=C(/Cl)c1c(C)cc(C)cc1C
survivor count [6]: 6 of 6

Nc1ncnc2c1cnn2Cc1ccc(Cl)cc1
T/C (dose: 25.0 mg/kg/injection, schedule: Q04DX003 (ip), vehicle: Klucel (hydroxypropylcellulose) (HPC)): 127 % of control
survivor count [3]: 6 of 6

COc1ccc(OC)c(NC(=O)Sc2c(Cl)c(Cl)nc(Cl)c2Cl)c1
T/C [1]: 129 % of control
